Test results: patent US6589937B1, “Peptides and nootropic agent” (Kabushiki Kaisha Yakult Honsha, priority 1996, dated 2003)
Part of at least one peptide drawing is inferred or uncertain, most often the ends. Where a SMILES comes first, the peptide text is derived from it. [ ]: non-standard residue; d: D form. The star is where a group is joined. X1 = N=C(N)NCCC[C@H](N)C(=O)N[C@@H](Cc1c[nH]cn1)C(=O)N1CCC[C@H]1C(=O)N[C@@H](CS*)C(=O)O; pGlu = O=C1CC[C@@H](C(=O)O)N1

Experiments:
rats = test: Passive avoidance test, administration 60 min before retention test; type: in vivo; conditions: rat, s.c.
[1] = PI value by isoelectrofocusing (capillary electrophoresis); type: physicochemical; conditions: peptide 5 μg, UV 214 nm
Method: Further, the PI value was analyzed by the isoelectrofocusing method for the peptide 5 μg using a capillary electrophoretic apparatus (Beckman P/ACE 5000) and an isoelectrofocusing kit (eCAP 3-10, Beckman). The detection was carried out by UV 214 nm.

With `N=C(N)NCCC[C@H](NC(=O)[C@@H]1CCCN1C(=O)[C@H](CSSC[C@H](NC(=O)[C@@H]1CCCN1C(=O)[C@H](Cc1c[nH]cn1)NC(=O)[C@@H](N)CCCNC(=N)N)C(=O)O)NC(=O)[C@H](CC(N)=O)NC(=O)[C@@H]1CCC(=O)N1)C(=O)NCC(N)=O` [C-AVP 4-9-000] ([pGlu]NC(X1)PRG-NH2) the “dose at the maximum effect compared with that of AVP 4-9” value (rats) was 1/100 and the PI values [1] was 9.77.
